Data published in the supplement of paper PMC8104966.
Some of the results follow. Single values are uncertain here, since repeats match poorly.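 U2OS cells carrying ACE2 were mixed with U2OS cells carrying full-length spike, and fusion was scored by imaging as the share of nuclei showing both cell types' fluorescent markers. A compound counts as an inhibitory hit when it is non-toxic and its fusion z-score falls below -3, meaning more than three standard deviations below the plate's DMSO wells.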

test system: U2OS ACE2 x SARS-CoV-2 spike co-culture; experiment: cell-cell fusion (fraction fused) z-score vs plate DMSO control; higher = more fusion; conditions: 30 µM; 5 h; toxicity class: non-toxic, passed QC

Row | Structure (SMILES) | cell-cell fusion (z-score)
1 | CCCc1cc(C(N)=S)ccn1 | inactive: 0.773
2 | Nc1nc(N)c2nc(-c3ccccc3)c(N)nc2n1 [Triamterene] | inactive: -2.83
3 | O=C([O-])[C@H](O)[C@H](O)[C@@H](O)[C@H](O)[C@H](O)CO.O=C([O-])[C@H](O)[C@H](O)[C@@H](O)[C@H](O)[C@H](O)CO.[Ca+2] [Calcium α-D-heptagluconate hydrate] | inactive: 3.29
4 | CC(=O)O[C@H]1C[C@@H]2CC[C@@H]3[C@H](CC[C@@]4(C)[C@H]3C[C@H]([N+]3(C)CCCCC3)[C@@H]4OC(C)=O)[C@@]2(C)C[C@@H]1[N+]1(C)CCCCC1.[Br-].[Br-] [Pancuronium bromide] | inactive: 2.71
5 | Cl.NCC(O)C1CCCCCCC1 (stereo not given) [2-Cyclooctyl-2-hydroxyethylamine hydrochloride] | inactive: 2.37
6 | C=Cc1cc2oc(-c3ccc(O)c(F)c3)nc2cc1O | inactive: 0.31
7 | CCc1cncnc1N1CCN(Cc2nc3cc(C(F)(F)F)ccc3[nH]2)CC1 | inactive: -1.39
8 | C[C@](N)(Cc1ccc(O)c(O)c1)C(=O)O [L-(-)-α-Methyldopa] | inactive: 3.37
9 | O=C([O-])Cc1c[nH]cn1.[Na+] | inactive: 1.54
10 | CCCn1c(=O)c(C)cn2nc(N)nc12 | inactive: 1.24
11 | N[C@@H](CCC(=O)O)C(=O)[O-].[Na+] [L-Glutamic acid monosodium salt] | inactive: 2.22
12 | Nc1nc(=O)c2c(CCc3ccc(C(=O)N[C@@H](CCC(=O)[O-])C(=O)[O-])cc3)c[nH]c2[nH]1.[Na+].[Na+] | inactive: 2.48
13 | COc1ccc(-c2ccc3c(N4CCOCC4)nc(N4C[C@@H](C)O[C@@H](C)C4)nc3n2)cc1CO | inactive: 0.88
14 | Cn1cnc([N+](=O)[O-])c1Sc1ncnc2nc[nH]c12 [Azathioprine (Azasan, Imuran)] | inactive: 1.6
15 | CN1C[C@H](CNC(=O)OCc2ccccc2)C[C@@H]2c3cccc4c3c(cn4C)C[C@H]21 [Metergoline] | inactive: 1.66
16 | Cc1nc2c([nH]1)CCN(C(=O)c1ccc(NC(=O)c3ccccc3-c3ccccc3)cc1)c1ccccc1-2.Cl [Conivaptan hydrochloride] | inactive: 0.992
17 | CON(C)C(=O)[C@H](O)[C@H](Cc1ccccc1)NC(=O)c1cc2cc(Cl)ccc2[nH]1 | inactive: -2.69
18 | NC(C(=O)O)C(O)C(=O)O (stereo not drawn) [d,l-threo-3-HYDROXYASPARTIC ACID] | inactive: 2.26
19 | Cc1cccc([C@H](C)c2cnc[nH]2)c1C.Cl [Dexmedetomidine HCl] | inactive: 3.3
20 | CN1CCN(CCCN2c3ccccc3Sc3ccc(Cl)cc32)CC1.O=S(=O)(O)CCS(=O)(=O)O | inactive: -1.15
21 | Br.CCCN1CC[C@@H]2c3cc(O)ccc3CC[C@@H]21 [cis(+/-)-8-OH-PBZI hydrobromide] | inactive: 3.02
22 | O=C(c1ccc(Cl)cc1)N1CCN(c2ccc([N+](=O)[O-])c3ncccc23)CC1 | inactive: -1.14

Row | Structure (SMILES) | cell-cell fusion (z-score)
23 | Cc1cc(NS(=O)(=O)c2ccc(N)cc2)no1 [Sulfamethoxazole] | inactive: 1.62
24 | Br.Br.CN(C)CCN(C)CCc1ccc(Cl)c(Cl)c1 | inactive: 0.409
25 | C[C@]12C=CC(=O)C=C1CC[C@@H]1[C@@H]2[C@@H](O)C[C@@]2(C)[C@H]1CC[C@]2(O)C(=O)COP(=O)([O-])[O-].[Na+].[Na+] [Prednisolone phosphate sodium] | inactive: 3.42
26 | O=C1c2ccccc2C(=O)c2ccccc21 | inactive: 2.15
27 | CC(=O)Oc1ccc2c(c1OC(C)=O)OCC1(O)Cc3c(cc(OC(C)=O)c(OC(C)=O)c3OC(C)=O)C21 (stereo not given) | inactive: 2.08
28 | CCCNC(C)C(=O)Nc1ccccc1C.Cl (stereo not given) | inactive: 3.68
29 | CC(C)(C)NC[C@@H](O)COc1nsnc1N1CCOCC1.O=C(O)/C=C\C(=O)O | inactive: 2.99
30 | CN(C(=O)C(Cl)Cl)c1ccc(OC(=O)c2ccco2)cc1 | inactive: 4.77
31 | CC(C)c1c(CN(C)C(C)Cc2ccccc2)n(C)n(-c2ccccc2)c1=O (stereo not given) | inactive: 3.4
32 | CCC(C)(C)C(=O)O[C@@H]1C[C@@H](C)C=C2C=C[C@H](C)[C@@H](CC[C@@H]3C[C@@H](O)CC(=O)O3)[C@H]21 [Simvastatin (Zocor)] | inactive: 2.51
33 | CC(=O)OC1CCC23CC1(C)CCC2C(C)(C)CC3OC(C)=O (stereo not given) | inactive: 2.22
34 | CC[N+](CC)(CC)CCOc1cccc(OCC[N+](CC)(CC)CC)c1OCC[N+](CC)(CC)CC.[I-].[I-].[I-] [Gallamine triethiodide] | inactive: 0.978
35 | CC[N+](CC)(CC)CCOc1cccc(OCC[N+](CC)(CC)CC)c1OCC[N+](CC)(CC)CC.[I-].[I-].[I-] | inactive: 0.125
36 | CCCC[C@@H](CC)COC(=O)c1ccccc1O | inactive: 1.35
37 | Cc1cc(O)c2c(c1)Cc1cccc(O)c1C2=O | inactive: 1.74
38 | CCn1nc(C(=O)O)c(=O)c2cc3c(cc21)OCO3 [Cinoxacin] | inactive: 1.35
39 | CC(C)c1c(C(=O)Nc2ccccc2)c(-c2ccccc2)c(-c2ccc(F)cc2)n1CC[C@@H](O)C[C@@H](O)CC(=O)[O-].CC(C)c1c(C(=O)Nc2ccccc2)c(-c2ccccc2)c(-c2ccc(F)cc2)n1CC[C@@H](O)C[C@@H](O)CC(=O)[O-].[Ca+2] [Atorvastatin Calcium] | inactive: 0.944
40 | NC(=O)C1(N2CCCCC2)CCN(CCCC(=O)c2ccc(F)cc2)CC1 | inactive: 3.47
41 | CCCN(CCC)CCc1cccc2c1CC(=O)N2.Cl [Ropinirole hydrochloride] | active: -3.09
42 | CC(=O)[C@H]1CC[C@H]2[C@@H]3CC[C@H]4C[C@H](O)CC[C@]4(C)[C@H]3CC[C@]12C [Allopregnanolone] | inactive: 1.32
43 | CC[C@@H](CO)NC(=O)[C@@H]1C=C2c3cccc4c3c(cn4C)C[C@H]2N(C)C1.O=C(O)/C=C\C(=O)O | inactive: 1.22
44 | CC(=O)O.O=C(NCC1CCCCN1)c1cc(OCC(F)(F)F)ccc1OCC(F)(F)F (stereo not given) | inactive: 0.975

Looked up above:
CCCNC(C)C(=O)Nc1ccccc1C.Cl (stereo not given) | cell-cell fusion (z-score): inactive: 3.68
CCCC[C@@H](CC)COC(=O)c1ccccc1O | cell-cell fusion (z-score): inactive: 1.35

The listing continues.

Row | Structure (SMILES) | cell-cell fusion (z-score)
45 | CC(=O)[O][Hg][c]1ccccc1 | inactive: 4.01
46 | N#C/C(=C\c1ccc(O)cc1)C(=O)O [alpha-CYANO-4-HYDROXYCINNAMIC ACID] | inactive: 3.76
47 | CS(=O)(=O)O.C[C@H](NCc1ccc(OCc2cccc(F)c2)cc1)C(N)=O [Safinamide mesylate] | inactive: 0.204
48 | CC1C(=O)O[C@H]2C1CCC1(C)CCC(=O)[C@@H](C)[C@H]21 (stereo not given in full) | inactive: 2.63
49 | C[N+](C)(C)CCO.[Br-] [Choline bromide] | inactive: 2.73
50 | COc1ccc(CC2c3cc(OC)c(OC)cc3CC[N+]2(C)CCC(=O)OCCCCCOC(=O)CC[N+]2(C)CCc3cc(OC)c(OC)cc3C2Cc2ccc(OC)c(OC)c2)cc1OC.O=S(=O)([O-])c1ccccc1.O=S(=O)([O-])c1ccccc1 (stereo not given) [Atracurium besylate] | inactive: 1.25
51 | Nc1nc(N)c2nc(-c3cccc(O)c3)cnc2n1 | inactive: -2.25
52 | COP(=S)(OC)Oc1cc(Cl)c(Cl)cc1Cl | inactive: 1.75
53 | S=P(N1CC1)(N1CC1)N1CC1 [Triethylenethiophosphoramide] | inactive: 1.37
54 | S=P(N1CC1)(N1CC1)N1CC1 | inactive: 2.26
55 | C[C@H](NC(=O)/C(C#N)=C/c1ccc(O)c(O)c1)c1ccccc1 [Tyrphostin AG 835] | inactive: -0.255
56 | CSc1nc2cc(Oc3cccc(Cl)c3Cl)c(Cl)cc2[nH]1 [Triclabendazole] | inactive: -1.07
57 | C=C(C)C1CC=C(C(=O)O)CC1 (single isomer, unassigned; (-)) [(-)-Perillic acid] | inactive: 0.807
58 | O=C1CCCC2C3CC(CN12)[C@@H]1CCCCN1C3.[O-][Cl+3]([O-])([O-])O (stereo not given in full) | inactive: 2.84
59 | CC[C@@H]1OC(OC(c2c[nH]cn2)C(NC(=O)c2nc(C(CC(N)=O)NCC(N)C(N)=O)nc(N)c2C)C(=O)NC(C)C(O)C(C)C(=O)NC(C(=O)NCCc2nc(-c3nc(C(=O)NCCCCNC(=N)N)cs3)cs2)C(C)O)[C@@H](O[C@H]2O[C@H](CO)[C@@H](O)[C@H](OC(N)=O)[C@@H]2O)[C@@H](C)[C@@H]1C.O=S(=O)(O)O.O=S(=O)(O)O (stereo not given in full) [BLEOMYCIN (bleomycin B2 shown)] | inactive: 2.52
60 | CCCCOc1cc(C(=O)OCCN(CC)CC)ccc1N.Cl | inactive: 1.04
61 | Cc1c(C)c2c(c(C)c1O)CCC(C)(COc1ccc(CC3SC(=O)NC3=O)cc1)O2 (stereo not given) [Troglitazone] | inactive: 2.32
62 | Nc1nc(=O)c2c([nH]1)NC[C@H](CCc1ccc(C(=O)N[C@@H](CCC(=O)O)C(=O)O)cc1)C2 [Lometrexol hydrate] | inactive: 2.76
63 | Cc1c(N(C)C)c(=O)n(-c2ccccc2)n1C | inactive: 2.69
64 | C[C@]12CCC(=O)C=C1CC[C@@H]1[C@H]2[C@H](O)C[C@@]2(C)[C@H]1CC[C@@]2(O)C(=O)CO [Hydrocortisone (Cortisol)] | inactive: 1.49
65 | COc1cc2ncc(-c3ccccc3)nc2cc1OC [Tyrphostin AG 1296] | inactive: -1.19
